Results taken from patent US11642346B2, “Combination therapy for treating cancer” (Epizyme, Inc., priority 2017, dated 2023).
For at least one compound, name, drawing or mass did not settle the structure.

Tests used:
Assay type in all cases: cell-based
BT-12 cells = assay: Combination of tazemetostat with other agents, pretreatment model, luminescent cell viability (ATP) assay; conditions: pretreatment model: 4 days tazemetostat, then 4 days agent alone or with tazemetostat; synergy by Loewe Volume, Fa-CI plots
Description: (§1) Proliferation data was read for luminescence. Calculations of synergy were performed using the Loewe Volume (Chalice Software) and Fa-CI plots were generated with Calcusyn.

CHLA-266 cells = assay: as above; conditions: pretreatment model: 4 days tazemetostat, then 4 days agent alone or with tazemetostat; synergy by Loewe Volume, Fa-CI plots
Description: as §1

A204 cells = assay: Combination of tazemetostat with other agents, co-treatment model, luminescent cell viability (ATP) assay; conditions: grown for seven days
From the text: (§2) Proliferation data was read for luminescence.

G401 cells = assay: as above; conditions: grown for seven days
From the text: as §2

Cc1[nH]c2ccccc2c1CCNCc1ccc(/C=C/C(=O)NO)cc1 [Panobinostat]
Combination treatment with tazemetostat, BT-12 (BT-12 cells): Synergy
Combination treatment with tazemetostat, CHLA-266 (CHLA-266 cells): Additive
Combination treatment with tazemetostat, A204 (A204 cells): Additive
Combination treatment with tazemetostat, G401 (G401 cells): Synergy

CCN1CCN(Cc2ccc(Nc3ncc(F)c(-c4cc(F)c5nc(C)n(C(C)C)c5c4)n3)nc2)CC1 [abemaciclib]
Combination treatment with tazemetostat, BT-12 (BT-12 cells): Synergy
Combination treatment with tazemetostat, CHLA-266 (CHLA-266 cells): Synergy
Combination treatment with tazemetostat, A204 (A204 cells): Additive
Combination treatment with tazemetostat, G401 (G401 cells): Additive

CC(=O)c1c(C)c2cnc(Nc3ccc(N4CCNCC4)cn3)nc2n(C2CCCC2)c1=O [palbociclib]
Combination treatment with tazemetostat, BT-12 (BT-12 cells): Synergy
Combination treatment with tazemetostat, CHLA-266 (CHLA-266 cells): Synergy
Combination treatment with tazemetostat, A204 (A204 cells): Additive
Combination treatment with tazemetostat, G401 (G401 cells): Synergy

Cn1cnc2c(F)c(Nc3ccc(Br)cc3Cl)c(C(=O)NOCCO)cc21 [selumetinib]
Combination treatment with tazemetostat, BT-12 (BT-12 cells): Synergy
Combination treatment with tazemetostat, CHLA-266 (CHLA-266 cells): Synergy

CC(=O)Nc1cccc(-n2c(=O)n(C3CC3)c(=O)c3c(Nc4ccc(I)cc4F)n(C)c(=O)c(C)c32)c1 [trametinib]
Combination treatment with tazemetostat, BT-12 (BT-12 cells): Synergy
Combination treatment with tazemetostat, CHLA-266 (CHLA-266 cells): Synergy
Combination treatment with tazemetostat, A204 (A204 cells): Additive
Combination treatment with tazemetostat, G401 (G401 cells): Synergy
